The source of these data is PubChem BioAssay AID493014 (National Center for Advancing Translational Sciences (NCATS), 2011).

The other results are listed elsewhere or left out. The main result of the screen is listed elsewhere. These columns were measured beside it and carry no call. The list favours compounds with an active or inconclusive main result. Words in brackets tell the shape of the fitted curve; partial curves, single points and poor fits give uncertain potencies.

The nature of the assay: qHTS Assay to Find Inhibitors of Chronic Active B-Cell Receptor Signaling. The conditions noted are these: ABC-DLBCL IkBa-CBG/CBR reporter, luminescence ratio (green luciferase fused to IkBa over red control in TMD8 lymphoma cells), 4 h. The gist of the method: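 TMD8 human ABC-DLBCL cells with doxycycline-inducible IκBα–green luciferase fusion and unfused red luciferase, in 0.5% FBS medium; compounds up to 46 uM, 4 h at 37C. Green/red luminescence ratio, filter-overlap corrected, fitted to concentration-response curves.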
Background: qHTS replaces the single test concentration by a dilution series.

Where [1] appears, read: measured here: CBR red luminescence, cell number.
The mark [2] stands for this setting: measured here: IkBa-CBG green luminescence.

A word on the AC50: it is the concentration giving half of the maximal activity seen. With `CCc1ccc2nc(NC(=O)Cn3cnc4ccccc4c3=O)sc2c1`, under setting [1], the half-maximal activity concentration (AC50) is 1.12 µM [rising, partial curve, poor fit]. Consider `COC(c1ccccc1)c1nnc(CCC(=O)N(C)CCOc2ccccc2)o1` (stereo not drawn), for which, under setting [1], the AC50 is 8.91 µM [rising, partial curve, poor fit]. In the case of `Cc1cccc(-c2noc(CCCC(=O)Nc3ccc(C(N)=O)cc3)n2)c1`, the AC50 reads like this: under setting [1], 29.1 µM [rising, single point]; under setting [2], 0.411 µM [rising, full curve, poor fit]. For the compound `O=C(NCCCn1ccnc1)c1cc(-c2ccc(Br)cc2)on1`, the AC50 under setting [1] was 35.5 µM [falling, partial curve, poor fit]. For the compound `Cc1ccc(C(=O)NCc2ccccn2)o1`, the half-maximal activity concentration (AC50) under setting [1] is 0.082 µM [rising, full curve, poor fit]. As to `Cc1ccc(NC(=O)c2cccc(S(=O)(=O)N(C)c3ccccc3)c2)cc1S(=O)(=O)N1CCOCC1`, under setting [1], the concentration at half-maximal activity (AC50) is 0.411 µM [rising, full curve, poor fit]. For `Cc1c(Cl)cccc1NC(=S)N1CCN(c2ccccn2)CC1`, under setting [1], the concentration at half-maximal activity (AC50) is 35.5 µM [rising, single point]. Still for that read-out and setting: with `COc1nnc(-c2ccc(C)c(S(N)(=O)=O)c2)c2ccccc12` the figure was 3.55 µM [rising, partial curve]. Same read-out and setting: with `Cn1c(O)c(C2=c3ccccc3=NC2=O)sc1=Nc1ccc(Cl)cc1` the figure was 5.8 µM [falling, partial curve]. With `CC(=O)Nc1sc2c(c1C#N)CCC(C)C2` (stereo not drawn), under setting [1], the AC50 was 11.2 µM [rising, partial curve, poor fit]. Take `Cc1ccc[n+](CC2OCc3ccccc3CO2)c1`: the half-maximal activity concentration (AC50) under setting [1] is 1.26 µM [rising, full curve, poor fit].

As for `N#Cc1nc(-c2ccc(OCc3ccc(Cl)cc3)cc2)oc1NCc1cccnc1`, the AC50 under setting [1] is 0.282 µM [rising, full curve, poor fit]. On to `CCOc1ccc(NC(=S)Nc2cc(-c3ccccc3)[nH]n2)cc1`, for which the half-maximal activity concentration (AC50) under setting [1] was 0.631 µM [falling, full curve, poor fit]. For the compound `C/C(=N/NC(=O)c1ccoc1C)C12CC3CC(CC(C3)C1)C2`, under setting [1], the AC50 was 20.6 µM [falling, partial curve]. For the compound `CCOc1cc2nc(-c3ccc(OC)c(OC)c3)nc(N3CCOCC3)c2cc1OC`, the half-maximal activity concentration (AC50) under setting [1] is 2.82 µM [falling, full curve, poor fit]. As for `Cc1cc(C)c2c(c1)c(C)cc1nnc(SCC(=O)c3cccs3)n12`, the AC50 under setting [1] was 35.5 µM [falling, single point]. Take `N#CC1=C(N)Oc2cc(O)c(C=Nc3ccccc3)cc2C1c1ccccc1` (stereo not drawn): the AC50 under setting [1] was 13 µM [falling, partial curve]. As for `N#Cc1ccc(COC(=O)C2CCC(=O)N2)cc1` (stereo not drawn), under setting [1], the AC50 was 29.1 µM [rising, single point].

As for `O=S(=O)(NCCc1csc2nc(-c3ccccc3)nn12)c1cccs1`, under setting [1], the AC50 was 7.08 µM [falling, partial curve, poor fit]. Take `COc1ccc(NC(=S)N(C)CC2COc3ccccc3O2)cc1` (stereo not drawn): under setting [1], the half-maximal activity concentration (AC50) was 35.5 µM [rising, single point].

`CCCn1c(N2CCN(C(=O)NCc3ccccc3)CC2)nc2ccccc21`: the half-maximal activity concentration (AC50) under setting [1] is 25.1 µM [falling, single point]. Still for that read-out and setting: with `O=C(NCc1ccc2c(c1)OCO2)NC1CCCCC1` the figure was 12.6 µM [rising, partial curve, poor fit]; with `CCCc1cc(=O)oc2cc(C)cc(O)c12`, 2.31 µM [rising, full curve]; with `CC(=O)Nc1sc2c(c1C(c1ccccc1Cl)N1CCN(CCO)CC1)CCCC2` (stereo not drawn), 4.47 µM [falling, partial curve, poor fit]. Consider `CC1CCN(CC2CCN(C(=O)NCc3ccc(F)cc3)CC2)CC1`, for which, under setting [1], the AC50 is 3.16 µM [falling, partial curve]. `O=C(O)c1ccc(Cn2cnc3cccnc32)cc1`: the AC50 under setting [1] is 11.2 µM [rising, partial curve, poor fit]. On the same count and under the same terms, with `Cc1cc(C)nc(NC(=O)c2cc3ccccc3o2)n1` the figure was 15.8 µM [falling, single point]; with `O=C(Nc1nnc(C2=COCCO2)o1)c1ccc(Br)cc1`, 35.5 µM [falling, single point]. Regarding `O=C(N1CCCCCC1)N1CCN(S(=O)(=O)N2CCCCC2)CC1`, the half-maximal activity concentration (AC50) by setting is: under setting [1], 0.731 µM [rising, partial curve, poor fit]; under setting [2], 6.51 µM [rising, partial curve, poor fit].

With `COc1cc(/C=C/C(=O)c2ccc3c(c2)OCCO3)cc(OC)c1OC`, the half-maximal activity concentration (AC50) under setting [1] was 17.8 µM [falling, partial curve, poor fit]. Consider `Cc1cc(/C=C2/C(=O)NN(c3ccccc3)C2=O)c(C)n1-c1cccc(O)c1`, for which, under setting [1], the AC50 is 9.2 µM [falling, partial curve, poor fit]. On to `O=C(NNC(=O)c1ccc(Cl)c(Cl)c1)c1cccnc1`, for which the half-maximal activity concentration (AC50) under setting [1] is 17.8 µM [falling, partial curve]. For `CCCS(=O)(=O)NCCc1cc2cc(C)c(C)cc2[nH]c1=O`, the AC50 under setting [1] is 2.31 µM [rising, full curve].

`O=C(c1ccc(-c2nc3ccccc3s2)o1)N1CCN(c2ccccc2O)CC1`: the AC50 under setting [1] was 10 µM [falling, partial curve, poor fit]. For the compound `CCOC(=O)CNC(=O)c1sc(NC(=O)c2cccc(F)c2)nc1C`, the AC50 under setting [1] was 0.291 µM [falling, partial curve, poor fit].

With `COc1ccc(C(=O)Nc2ccccc2C(=O)NCCN2CCOCC2)cc1`, under setting [1], the AC50 is 0.00461 µM [rising, full curve, poor fit]. Take `CC(C)Cn1c2c(c(O)c(C(=O)Nc3ccc(F)cc3)c1=O)CCCC2`: the AC50 under setting [1] was 2.24 µM [rising, full curve, poor fit]. Turning to `CCCC(C(=O)Nc1cccc(S(=O)(=O)N2CCCC2)c1)c1ccccc1` (stereo not drawn), under setting [1], the concentration at half-maximal activity (AC50) was 16.4 µM [falling, single point]. Take `CC(OC(=O)c1cccnc1SCc1cc(=O)n2ccccc2n1)c1ccccn1` (stereo not drawn): under setting [1], the concentration at half-maximal activity (AC50) was 8.2 µM [falling, partial curve, poor fit]. As for `CCOc1ccc(CCNC(=O)COC(=O)COc2ccc(Cl)cc2)cc1OCC`, the AC50 under setting [1] was 3.66 µM [rising, full curve, poor fit].

For `COc1ccc(N2CC(NC(=O)c3cccs3)CC2=O)cc1` (stereo not drawn), the concentration at half-maximal activity (AC50) under setting [1] is 17.8 µM [falling, single point].
